Record: PubChem BioAssay AID504764 (Drosophila RNAi Screening Center, 2011)
Screen: 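Knock-downs that raise or lower a Notch target reporter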 (primary screen). Cell system: Drosophila Kc167 cells. Knock-down reagent: long dsRNA against Drosophila genes. Duration: about 5 days (4 days dsRNA, then 24 h after transfection). Treatment: transfection of constitutively active membrane-tethered Notch lacking the extracellular domain, read 24 h later. Read-out: 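Light from a Notch-responsive E(spl)m3 luciferase reporter under active Notch, with control-promoter and no-Notch reporter wells to normalise; raw counts from paired wells a and b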. Scale: induced reporter light, run 1, well a and induced reporter light, run 1, well b: higher = more light from the Notch target reporter with active Notch; control promoter light, run 1, well a and control promoter light, run 1, well b: higher = more light from the viral control promoter (cell number, transfection, viability); uninduced reporter light, run 1, well a: higher = more light from the Notch target reporter without active Notch. Call rule: 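Wells with low control signal or poorly matching duplicates excluded; duplicates averaged; per source plate, z beyond ±2 for induced/control log2 ratio or beyond ±1.8 for induced/uninduced marks a hit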. Meaning of the calls: active = modifier hit (raised or lowered Notch signal); inactive = not a hit.
The screen tested about 22,000 reagents; this is a random part of those with a known target gene and a result. Of all reagents, 403 (1.9%) were called active. 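Unnormalised raw counts per well; ratio z-scores behind the hit calls and whether each hit raises or lowers signal are not deposited.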 No sequences are given here. Not given: the amount of reagent.

With knock-down of MED7 [SID104195851] the results were induced reporter light, run 1, well a = 46185; induced reporter light, run 1, well b = 44145; control promoter light, run 1, well a = 47780; control promoter light, run 1, well b = 37195; uninduced reporter light, run 1, well a = 3255; inactive. CG8435 [SID104186971] scored induced reporter light, run 1, well a = 99395; induced reporter light, run 1, well b = 91525; control promoter light, run 1, well a = 2.06e5; control promoter light, run 1, well b = 1.91e5; uninduced reporter light, run 1, well a = 8110; inactive. After knock-down of CG13613 [SID104194408], the screen gave induced reporter light, run 1, well a = 1.37e5; induced reporter light, run 1, well b = 1.46e5; control promoter light, run 1, well a = 1.89e5; control promoter light, run 1, well b = 1.73e5; uninduced reporter light, run 1, well a = 12710; inactive. For CG14762 [SID104184865], the entry reads induced reporter light, run 1, well a = 50365; induced reporter light, run 1, well b = 69985; control promoter light, run 1, well a = 71570; control promoter light, run 1, well b = 78255; uninduced reporter light, run 1, well a = 2988; inactive. Against CG14762 [SID104186288], the entry reads induced reporter light, run 1, well a = 1.94e5; induced reporter light, run 1, well b = 1.72e5; control promoter light, run 1, well a = 2.15e5; control promoter light, run 1, well b = 2.08e5; uninduced reporter light, run 1, well a = 16550; inactive. With knock-down of sprt [SID104187115], the record shows induced reporter light, run 1, well a = 1.92e5; induced reporter light, run 1, well b = 1.54e5; control promoter light, run 1, well a = 1.58e5; control promoter light, run 1, well b = 1.35e5; uninduced reporter light, run 1, well a = 13755; inactive.

Or65b [SID104188601] showed induced reporter light, run 1, well a = 2.24e5; induced reporter light, run 1, well b = 2.27e5; control promoter light, run 1, well a = 2.76e5; control promoter light, run 1, well b = 2.95e5; uninduced reporter light, run 1, well a = 15200; inactive. CG1486 [SID104200300] gave induced reporter light, run 1, well a = 1.55e5; induced reporter light, run 1, well b = 1.68e5; control promoter light, run 1, well a = 1.23e5; control promoter light, run 1, well b = 92825; uninduced reporter light, run 1, well a = 11160; inactive. For FANCI [SID104186208] the deposit lists induced reporter light, run 1, well a = 1.84e5; induced reporter light, run 1, well b = 2.02e5; control promoter light, run 1, well a = 2.19e5; control promoter light, run 1, well b = 2.32e5; uninduced reporter light, run 1, well a = 14665; inactive. Depletion of CG2663 [SID104192106] came out at: induced reporter light, run 1, well a = 80855; induced reporter light, run 1, well b = 95475; control promoter light, run 1, well a = 1.45e5; control promoter light, run 1, well b = 1.04e5; uninduced reporter light, run 1, well a = 8715; inactive. CG13919 [SID104188180] scored induced reporter light, run 1, well a = 1.45e5; induced reporter light, run 1, well b = 1.04e5; control promoter light, run 1, well a = 1.32e5; control promoter light, run 1, well b = 1.54e5; uninduced reporter light, run 1, well a = 7850; inactive. For anchor [SID104190653], the entry reads induced reporter light, run 1, well a = 1.19e5; induced reporter light, run 1, well b = 1.27e5; control promoter light, run 1, well a = 61645; control promoter light, run 1, well b = 71800; uninduced reporter light, run 1, well a = 9950; inactive.

Silencing of Zmynd10 [SID104189618] came out at: induced reporter light, run 1, well a = 1.31e5; induced reporter light, run 1, well b = 1.30e5; control promoter light, run 1, well a = 1.88e5; control promoter light, run 1, well b = 1.55e5; uninduced reporter light, run 1, well a = 7665; inactive. Depletion of CG31522 [SID104191797] came out at: induced reporter light, run 1, well a = 1.52e5; induced reporter light, run 1, well b = 2.02e5; control promoter light, run 1, well a = 2.29e5; control promoter light, run 1, well b = 2.38e5; uninduced reporter light, run 1, well a = 16092; inactive. For CG4911 [SID104190248], the values are induced reporter light, run 1, well a = 1.15e5; induced reporter light, run 1, well b = 1.11e5; control promoter light, run 1, well a = 66115; control promoter light, run 1, well b = 36960; uninduced reporter light, run 1, well a = 8030; inactive. Depletion of CG17191 [SID104194977] resulted in: induced reporter light, run 1, well a = 1.56e5; induced reporter light, run 1, well b = 1.12e5; control promoter light, run 1, well a = 1.70e5; control promoter light, run 1, well b = 1.62e5; uninduced reporter light, run 1, well a = 14145; inactive. Knock-down of CG42284 [SID104201664] came out at: inactive. Against Jhbp6 [SID104191506], the entry reads induced reporter light, run 1, well a = 1.33e5; induced reporter light, run 1, well b = 1.16e5; control promoter light, run 1, well a = 1.31e5; control promoter light, run 1, well b = 97730; uninduced reporter light, run 1, well a = 8115; inactive.
